{"sequences": {"note": "By UniProt entry, the sequences of proteins in these tests, tags left out. Where a name states a change or a piece, a line headed by the entry shows the natural chain unless it says otherwise. Residues count along the entry.", "UniProt P08581, 25-1390": "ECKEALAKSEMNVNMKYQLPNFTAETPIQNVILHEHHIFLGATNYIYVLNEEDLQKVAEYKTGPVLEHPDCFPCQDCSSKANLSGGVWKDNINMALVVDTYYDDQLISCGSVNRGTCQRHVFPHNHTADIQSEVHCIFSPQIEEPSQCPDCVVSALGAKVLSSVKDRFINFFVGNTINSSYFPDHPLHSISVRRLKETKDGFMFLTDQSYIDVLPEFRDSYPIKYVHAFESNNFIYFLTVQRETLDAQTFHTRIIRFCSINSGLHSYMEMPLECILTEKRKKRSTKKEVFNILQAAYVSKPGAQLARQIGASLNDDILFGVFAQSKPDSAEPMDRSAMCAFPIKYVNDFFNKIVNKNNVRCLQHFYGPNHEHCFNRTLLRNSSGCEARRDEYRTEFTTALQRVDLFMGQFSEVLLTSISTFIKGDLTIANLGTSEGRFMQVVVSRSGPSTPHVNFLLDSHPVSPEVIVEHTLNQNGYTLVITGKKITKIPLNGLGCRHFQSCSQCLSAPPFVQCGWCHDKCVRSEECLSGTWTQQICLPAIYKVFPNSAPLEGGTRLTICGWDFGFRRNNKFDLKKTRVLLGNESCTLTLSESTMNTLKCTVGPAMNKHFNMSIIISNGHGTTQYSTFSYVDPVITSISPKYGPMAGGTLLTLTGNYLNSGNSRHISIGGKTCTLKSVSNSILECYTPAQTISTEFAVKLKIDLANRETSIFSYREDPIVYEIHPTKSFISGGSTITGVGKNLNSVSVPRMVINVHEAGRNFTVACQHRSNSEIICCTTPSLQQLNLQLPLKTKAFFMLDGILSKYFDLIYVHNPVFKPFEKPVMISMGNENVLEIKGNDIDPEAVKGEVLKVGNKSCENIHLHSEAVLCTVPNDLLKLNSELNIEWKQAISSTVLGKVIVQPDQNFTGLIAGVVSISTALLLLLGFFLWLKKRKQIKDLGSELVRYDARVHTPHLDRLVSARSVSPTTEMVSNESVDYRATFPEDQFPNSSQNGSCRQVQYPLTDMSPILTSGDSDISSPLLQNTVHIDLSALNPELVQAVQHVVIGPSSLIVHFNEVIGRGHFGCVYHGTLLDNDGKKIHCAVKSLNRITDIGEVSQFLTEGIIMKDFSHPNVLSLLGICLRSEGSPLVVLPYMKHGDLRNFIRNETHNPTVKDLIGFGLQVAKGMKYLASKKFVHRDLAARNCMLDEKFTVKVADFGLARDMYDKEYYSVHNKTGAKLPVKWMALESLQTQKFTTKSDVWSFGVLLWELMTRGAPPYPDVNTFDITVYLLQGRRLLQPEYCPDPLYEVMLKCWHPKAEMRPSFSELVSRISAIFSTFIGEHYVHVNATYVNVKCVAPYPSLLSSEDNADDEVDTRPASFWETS", "UniProt P41279, whole entry": "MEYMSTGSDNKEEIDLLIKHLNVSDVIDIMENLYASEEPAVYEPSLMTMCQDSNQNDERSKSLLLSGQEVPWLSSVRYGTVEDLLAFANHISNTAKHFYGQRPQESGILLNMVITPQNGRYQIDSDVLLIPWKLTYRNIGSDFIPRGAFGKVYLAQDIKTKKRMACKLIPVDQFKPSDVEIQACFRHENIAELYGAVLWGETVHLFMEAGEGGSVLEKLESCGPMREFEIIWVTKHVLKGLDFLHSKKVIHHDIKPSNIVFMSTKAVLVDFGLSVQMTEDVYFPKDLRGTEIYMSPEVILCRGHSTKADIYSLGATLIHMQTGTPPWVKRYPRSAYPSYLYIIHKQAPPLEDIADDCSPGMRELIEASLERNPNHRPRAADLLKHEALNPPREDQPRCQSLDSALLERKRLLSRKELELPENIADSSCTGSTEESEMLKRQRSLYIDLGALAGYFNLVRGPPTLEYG", "UniProt O14733": "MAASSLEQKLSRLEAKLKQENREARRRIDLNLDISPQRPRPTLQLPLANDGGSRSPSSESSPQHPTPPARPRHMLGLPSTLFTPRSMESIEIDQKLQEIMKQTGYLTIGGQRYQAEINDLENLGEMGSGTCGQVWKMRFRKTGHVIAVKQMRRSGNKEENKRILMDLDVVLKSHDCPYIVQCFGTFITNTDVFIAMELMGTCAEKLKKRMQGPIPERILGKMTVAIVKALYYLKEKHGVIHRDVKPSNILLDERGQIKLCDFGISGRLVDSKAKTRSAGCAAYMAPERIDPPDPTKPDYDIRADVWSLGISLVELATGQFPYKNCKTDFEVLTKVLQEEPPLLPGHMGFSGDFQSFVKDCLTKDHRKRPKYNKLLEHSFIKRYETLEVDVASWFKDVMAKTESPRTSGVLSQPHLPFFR", "UniProt O15264": "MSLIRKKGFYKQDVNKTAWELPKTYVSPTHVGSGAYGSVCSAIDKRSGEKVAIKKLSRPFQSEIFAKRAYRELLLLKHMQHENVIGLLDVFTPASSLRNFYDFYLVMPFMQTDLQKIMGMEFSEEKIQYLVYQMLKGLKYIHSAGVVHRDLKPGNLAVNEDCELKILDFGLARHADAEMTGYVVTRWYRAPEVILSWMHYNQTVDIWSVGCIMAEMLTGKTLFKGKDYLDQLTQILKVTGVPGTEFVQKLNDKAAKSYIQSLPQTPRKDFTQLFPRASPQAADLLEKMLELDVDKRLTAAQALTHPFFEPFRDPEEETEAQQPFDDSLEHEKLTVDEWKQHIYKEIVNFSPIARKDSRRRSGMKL", "UniProt Q5TCY1": "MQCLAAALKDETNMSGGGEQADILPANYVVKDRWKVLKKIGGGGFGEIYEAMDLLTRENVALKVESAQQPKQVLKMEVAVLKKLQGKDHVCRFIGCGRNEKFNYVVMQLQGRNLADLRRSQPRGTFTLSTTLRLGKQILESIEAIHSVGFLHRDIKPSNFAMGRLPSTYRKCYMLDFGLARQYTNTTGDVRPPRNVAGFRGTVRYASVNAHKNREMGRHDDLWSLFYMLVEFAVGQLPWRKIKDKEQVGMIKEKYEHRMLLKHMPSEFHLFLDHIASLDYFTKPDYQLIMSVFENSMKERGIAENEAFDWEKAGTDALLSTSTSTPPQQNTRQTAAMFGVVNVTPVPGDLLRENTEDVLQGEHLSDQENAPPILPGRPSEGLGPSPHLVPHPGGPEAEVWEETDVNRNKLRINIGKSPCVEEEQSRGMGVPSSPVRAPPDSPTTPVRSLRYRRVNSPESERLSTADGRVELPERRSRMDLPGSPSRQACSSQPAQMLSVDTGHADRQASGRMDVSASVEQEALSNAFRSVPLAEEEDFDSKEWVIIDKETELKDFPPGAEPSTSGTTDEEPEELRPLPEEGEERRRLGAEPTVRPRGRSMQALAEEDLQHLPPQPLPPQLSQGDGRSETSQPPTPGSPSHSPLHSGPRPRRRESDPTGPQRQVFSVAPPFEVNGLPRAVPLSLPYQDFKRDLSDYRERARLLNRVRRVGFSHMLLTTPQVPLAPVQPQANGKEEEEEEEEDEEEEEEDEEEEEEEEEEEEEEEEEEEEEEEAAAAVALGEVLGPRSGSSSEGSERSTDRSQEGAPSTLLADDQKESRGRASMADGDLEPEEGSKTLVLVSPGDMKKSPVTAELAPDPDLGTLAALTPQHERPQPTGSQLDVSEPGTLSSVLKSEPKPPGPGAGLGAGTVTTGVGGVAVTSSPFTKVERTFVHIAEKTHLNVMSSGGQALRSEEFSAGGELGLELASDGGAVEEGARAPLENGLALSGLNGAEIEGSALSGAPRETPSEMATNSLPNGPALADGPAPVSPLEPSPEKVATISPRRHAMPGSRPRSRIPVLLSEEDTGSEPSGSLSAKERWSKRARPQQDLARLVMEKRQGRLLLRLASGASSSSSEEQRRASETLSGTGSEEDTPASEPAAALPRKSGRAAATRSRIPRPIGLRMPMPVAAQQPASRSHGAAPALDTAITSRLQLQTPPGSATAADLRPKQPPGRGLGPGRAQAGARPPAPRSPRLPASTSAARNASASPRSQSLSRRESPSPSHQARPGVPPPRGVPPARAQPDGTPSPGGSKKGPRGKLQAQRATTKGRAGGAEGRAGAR", "UniProt Q9H4A3, whole entry, species assumed": "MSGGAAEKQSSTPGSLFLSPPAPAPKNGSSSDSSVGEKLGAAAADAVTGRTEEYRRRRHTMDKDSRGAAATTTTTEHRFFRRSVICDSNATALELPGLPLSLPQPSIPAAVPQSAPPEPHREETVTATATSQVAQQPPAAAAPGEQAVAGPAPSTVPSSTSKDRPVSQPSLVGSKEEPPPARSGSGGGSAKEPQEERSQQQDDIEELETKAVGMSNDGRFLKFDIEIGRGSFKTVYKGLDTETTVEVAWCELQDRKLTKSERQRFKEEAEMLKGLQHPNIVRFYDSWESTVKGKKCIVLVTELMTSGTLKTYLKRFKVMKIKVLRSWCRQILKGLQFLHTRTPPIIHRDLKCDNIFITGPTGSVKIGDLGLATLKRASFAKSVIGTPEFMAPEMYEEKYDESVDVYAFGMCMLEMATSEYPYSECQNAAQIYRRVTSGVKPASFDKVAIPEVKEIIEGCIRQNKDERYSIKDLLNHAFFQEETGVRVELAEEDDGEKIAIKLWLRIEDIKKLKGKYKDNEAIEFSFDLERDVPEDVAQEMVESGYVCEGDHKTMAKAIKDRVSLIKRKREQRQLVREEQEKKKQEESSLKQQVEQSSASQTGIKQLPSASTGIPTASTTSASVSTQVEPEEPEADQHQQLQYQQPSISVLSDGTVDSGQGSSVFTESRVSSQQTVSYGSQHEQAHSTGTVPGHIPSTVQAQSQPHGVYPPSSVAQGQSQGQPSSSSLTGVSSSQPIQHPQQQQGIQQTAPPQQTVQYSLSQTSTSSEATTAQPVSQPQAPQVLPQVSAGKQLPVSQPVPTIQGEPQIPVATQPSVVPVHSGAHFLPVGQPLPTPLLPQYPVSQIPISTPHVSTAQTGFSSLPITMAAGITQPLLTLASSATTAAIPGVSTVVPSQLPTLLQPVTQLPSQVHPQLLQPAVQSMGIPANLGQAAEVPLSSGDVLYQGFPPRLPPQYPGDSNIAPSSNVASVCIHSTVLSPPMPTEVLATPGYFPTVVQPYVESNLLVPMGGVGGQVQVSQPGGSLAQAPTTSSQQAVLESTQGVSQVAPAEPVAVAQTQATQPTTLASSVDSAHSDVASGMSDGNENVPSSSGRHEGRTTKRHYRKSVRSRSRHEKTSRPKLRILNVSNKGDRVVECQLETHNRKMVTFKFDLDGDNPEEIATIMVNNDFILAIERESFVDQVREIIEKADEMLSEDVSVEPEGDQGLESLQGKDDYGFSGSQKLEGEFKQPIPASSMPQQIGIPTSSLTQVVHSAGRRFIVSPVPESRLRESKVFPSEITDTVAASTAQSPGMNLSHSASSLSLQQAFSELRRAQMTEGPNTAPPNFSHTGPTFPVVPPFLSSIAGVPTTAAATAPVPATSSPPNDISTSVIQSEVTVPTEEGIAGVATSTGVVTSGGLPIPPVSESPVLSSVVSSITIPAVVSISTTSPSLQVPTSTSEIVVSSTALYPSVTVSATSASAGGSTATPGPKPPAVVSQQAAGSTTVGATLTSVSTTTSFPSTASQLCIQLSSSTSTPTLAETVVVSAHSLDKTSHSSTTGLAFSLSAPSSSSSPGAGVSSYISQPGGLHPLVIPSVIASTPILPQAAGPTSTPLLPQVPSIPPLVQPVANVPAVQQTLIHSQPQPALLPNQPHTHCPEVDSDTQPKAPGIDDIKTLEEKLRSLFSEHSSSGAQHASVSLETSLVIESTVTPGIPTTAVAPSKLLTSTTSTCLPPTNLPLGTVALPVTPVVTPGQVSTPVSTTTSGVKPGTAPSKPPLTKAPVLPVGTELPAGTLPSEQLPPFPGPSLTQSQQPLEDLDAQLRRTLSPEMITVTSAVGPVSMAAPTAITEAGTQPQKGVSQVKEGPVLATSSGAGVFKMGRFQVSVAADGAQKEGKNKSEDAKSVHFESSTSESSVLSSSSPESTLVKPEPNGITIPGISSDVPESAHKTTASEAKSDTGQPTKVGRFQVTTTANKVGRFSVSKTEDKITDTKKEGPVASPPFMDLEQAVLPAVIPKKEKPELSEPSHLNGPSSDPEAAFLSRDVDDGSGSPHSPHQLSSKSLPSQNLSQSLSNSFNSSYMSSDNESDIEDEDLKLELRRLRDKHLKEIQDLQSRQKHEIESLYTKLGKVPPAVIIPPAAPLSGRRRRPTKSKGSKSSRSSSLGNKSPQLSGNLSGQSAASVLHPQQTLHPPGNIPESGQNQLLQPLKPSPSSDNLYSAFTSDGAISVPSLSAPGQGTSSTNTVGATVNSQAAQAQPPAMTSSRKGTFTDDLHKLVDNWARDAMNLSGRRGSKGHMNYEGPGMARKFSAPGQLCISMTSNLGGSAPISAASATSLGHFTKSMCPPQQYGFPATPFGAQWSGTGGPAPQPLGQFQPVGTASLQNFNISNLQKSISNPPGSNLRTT", "UniProt Q9BXA6": "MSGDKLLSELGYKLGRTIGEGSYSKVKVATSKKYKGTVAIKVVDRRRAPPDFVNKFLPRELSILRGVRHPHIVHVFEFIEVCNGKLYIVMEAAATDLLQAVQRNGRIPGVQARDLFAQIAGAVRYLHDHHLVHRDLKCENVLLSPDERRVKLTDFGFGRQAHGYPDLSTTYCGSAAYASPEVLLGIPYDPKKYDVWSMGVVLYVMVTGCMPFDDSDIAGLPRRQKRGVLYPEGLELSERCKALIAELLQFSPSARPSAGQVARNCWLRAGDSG"}, "source": "paper PMC8213057", "about": "“Targeting ALK2: An Open Science Approach to Developing Therapeutics for the Treatment of Diffuse Intrinsic Pontine Glioma” (Journal of Medicinal Chemistry, 2020)", "key": {"AXL": {"biological_target": "AXL (Homo sapiens, UniProt P30530)", "details": "1 μM; Run 1, Run 2"}, "c-MET": {"biological_target": "c-MET (Homo sapiens, UniProt P08581)", "details": "1 μM; Run 1, Run 2"}, "CAMK1d": {"biological_target": "CAMK1d (Homo sapiens, UniProt Q8IU85)", "details": "1 μM; Run 1, Run 2"}, "CAMK2a": {"biological_target": "CAMK2a (Homo sapiens, UniProt Q9UQM7)", "details": "1 μM; Run 1, Run 2"}, "CAMKK2": {"biological_target": "CAMKK2 (Homo sapiens, UniProt Q96RR4)", "details": "1 μM; Run 1, Run 2"}, "CDK2/Cyclin A1": {"biological_target": "CDK2/Cyclin A1 (Homo sapiens, UniProt P24941)", "details": "1 μM; Run 1, Run 2"}, "COT1/MAP3K8 [1]": {"biological_target": "T1, COT1/MAP3K8 (Homo sapiens, UniProt P41279)", "details": "1 μM; Run 1, Run 2"}, "EPHA3": {"biological_target": "EPHA3 (Homo sapiens, UniProt P29320)", "details": "1 μM; Run 1, Run 2"}, "FRK/PTK5": {"biological_target": "FRK/PTK5 (Homo sapiens, UniProt P42685)", "details": "1 μM; Run 1, Run 2"}, "MKK7": {"biological_target": "MKK7 (Homo sapiens, UniProt O14733)", "details": "1 μM; Run 1, Run 2"}, "MSK1/RPS6KA5": {"biological_target": "MSK1/RPS6KA5 (Homo sapiens, UniProt O75582)", "details": "1 μM; Run 1, Run 2"}, "MST1/STK4": {"biological_target": "MST1/STK4 (Homo sapiens, UniProt Q13043)", "details": "1 μM; Run 1, Run 2"}, "MST3/STK24": {"biological_target": "MST3/STK24 (Homo sapiens, UniProt Q9Y6E0)", "details": "1 μM; Run 1, Run 2"}, "NEK4": {"biological_target": "NEK4 (Homo sapiens, UniProt P51957)", "details": "1 μM; Run 1, Run 2"}, "P38d/MAPK13": {"biological_target": "P38d/MAPK13 (Homo sapiens, UniProt O15264)", "details": "1 μM; Run 1, Run 2"}, "PKCeta": {"biological_target": "PKCeta (Homo sapiens, UniProt P24723)", "details": "1 μM; Run 1, Run 2"}, "PKD2/PRKD2": {"biological_target": "PKD2/PRKD2 (Homo sapiens, UniProt Q9BZL6)", "details": "1 μM; Run 1, Run 2"}, "SGK2": {"biological_target": "SGK2 (Homo sapiens, UniProt Q9HBY8)", "details": "1 μM; Run 1, Run 2"}, "STK38L/NDR2": {"biological_target": "STK38L/NDR2 (Homo sapiens, UniProt Q9Y2H1)", "details": "1 μM; Run 1, Run 2"}, "TTBK1": {"biological_target": "TTBK1 (Homo sapiens, UniProt Q5TCY1)", "details": "1 μM; Run 1, Run 2"}, "ULK2": {"biological_target": "ULK2 (Homo sapiens, UniProt Q8IYT8)", "details": "1 μM; Run 1, Run 2"}, "WNK1": {"biological_target": "WNK1 (Homo sapiens, UniProt Q9H4A3)", "details": "1 μM; Run 1, Run 2"}, "AKT3": {"biological_target": "AKT3 (Homo sapiens, UniProt Q9Y243)", "test": "biochemical", "details": "read-out: % enzyme activity, 1 μM; Run 1, Run 2"}, "ASK1/MAP3K5": {"biological_target": "ASK1/MAP3K5 (Homo sapiens, UniProt Q99683)", "test": "biochemical", "details": "read-out: % enzyme activity, 1 μM; Run 1, Run 2"}, "CDK5/P25": {"biological_target": "CDK5/P25 (Homo sapiens, UniProt Q00535)", "test": "biochemical", "details": "read-out: % enzyme activity, 1 μM; Run 1, Run 2"}, "CLK4": {"biological_target": "CLK4 (Homo sapiens, UniProt Q9HAZ1)", "test": "biochemical", "details": "read-out: % enzyme activity, 1 μM; Run 1, Run 2"}, "COT1/MAP3K8 [2]": {"biological_target": "T1, COT1/MAP3K8", "test": "biochemical", "details": "read-out: % enzyme activity, 1 μM; Run 1, Run 2"}, "DYRK2": {"biological_target": "DYRK2 (Homo sapiens, UniProt Q92630)", "test": "biochemical", "details": "read-out: % enzyme activity, 1 μM; Run 1, Run 2"}, "FGFR2": {"biological_target": "FGFR2 (Homo sapiens, UniProt P21802)", "test": "biochemical", "details": "read-out: % enzyme activity, 1 μM; Run 1, Run 2"}, "GSK3b": {"biological_target": "GSK3b (Homo sapiens, UniProt P49841)", "test": "biochemical", "details": "read-out: % enzyme activity, 1 μM; Run 1, Run 2"}, "IKKe/IKBKE": {"biological_target": "IKKe/IKBKE (Homo sapiens, UniProt Q14164)", "test": "biochemical", "details": "read-out: % enzyme activity, 1 μM; Run 1, Run 2"}, "MAST3": {"biological_target": "MAST3 (Homo sapiens, UniProt O60307)", "test": "biochemical", "details": "read-out: % enzyme activity, 1 μM; Run 1, Run 2"}, "MKK4": {"biological_target": "MKK4 (Homo sapiens, UniProt P45985)", "test": "biochemical", "details": "read-out: % enzyme activity, 1 μM; Run 1, Run 2"}, "MKK6": {"biological_target": "MKK6 (Homo sapiens, UniProt P52564)", "test": "biochemical", "details": "read-out: % enzyme activity, 1 μM; Run 1, Run 2"}, "NEK2": {"biological_target": "NEK2 (Homo sapiens, UniProt P51955)", "test": "biochemical", "details": "read-out: % enzyme activity, 1 μM; Run 1, Run 2"}, "NEK5": {"biological_target": "NEK5 (Homo sapiens, UniProt Q6P3R8)", "test": "biochemical", "details": "read-out: % enzyme activity, 1 μM; Run 1, Run 2"}, "P38b/MAPK11": {"biological_target": "P38b/MAPK11 (Homo sapiens, UniProt Q15759)", "test": "biochemical", "details": "read-out: % enzyme activity, 1 μM; Run 1, Run 2"}, "PAK4": {"biological_target": "PAK4 (Homo sapiens, UniProt O96013)", "test": "biochemical", "details": "read-out: % enzyme activity, 1 μM; Run 1, Run 2"}, "PKG1b": {"biological_target": "PKG1b (Homo sapiens, UniProt Q13976)", "test": "biochemical", "details": "read-out: % enzyme activity, 1 μM; Run 1, Run 2"}, "PRKX": {"biological_target": "PRKX (Homo sapiens, UniProt P51817)", "test": "biochemical", "details": "read-out: % enzyme activity, 1 μM; Run 1, Run 2"}, "SNRK": {"biological_target": "SNRK (Homo sapiens, UniProt Q9NRH2)", "test": "biochemical", "details": "read-out: % enzyme activity, 1 μM; Run 1, Run 2"}, "SSTK/TSSK6": {"biological_target": "SSTK/TSSK6 (Homo sapiens, UniProt Q9BXA6)", "test": "biochemical", "details": "read-out: % enzyme activity, 1 μM; Run 1, Run 2"}, "TAOK2/TAO1": {"biological_target": "TAOK2/TAO1 (Homo sapiens, UniProt Q9UL54)", "test": "biochemical", "details": "read-out: % enzyme activity, 1 μM; Run 1, Run 2"}}, "data": [{"smiles": "COc1cc(-c2cncc(-c3ccc(N4CCN(C(C)C)CC4)cc3)c2C)cc(F)c1C(N)=O", "note": "[Compound 26b, 2-Fluoro-4-(5-(4-(4-isopropylpiperazin-1-yl)phenyl)-4-methylpyridin-3-yl)-6-methoxybenzamide]", "values": [{"measurement": "% enzyme activity", "setting": "AXL", "value": 81.04, "unit": "%"}, {"measurement": "% enzyme activity", "setting": "c-MET", "value": 98.41, "unit": "%"}, {"measurement": "% enzyme activity", "setting": "CAMK1d", "value": 98.72, "unit": "%"}, {"measurement": "% enzyme activity", "setting": "CAMK2a", "value": 89.17, "unit": "%"}, {"measurement": "% enzyme activity", "setting": "CAMKK2", "value": 79.29, "unit": "%"}, {"measurement": "% enzyme activity", "setting": "CDK2/Cyclin A1", "value": 111.68, "unit": "%"}, {"measurement": "% enzyme activity", "setting": "COT1/MAP3K8 [1]", "value": 94.82, "unit": "%"}, {"measurement": "% enzyme activity", "setting": "EPHA3", "value": 100.47, "unit": "%"}, {"measurement": "% enzyme activity", "setting": "FRK/PTK5", "value": 99.17, "unit": "%"}, {"measurement": "% enzyme activity", "setting": "MKK7", "value": 98.52, "unit": "%"}, {"measurement": "% enzyme activity", "setting": "MSK1/RPS6KA5", "value": 96.47, "unit": "%"}, {"measurement": "% enzyme activity", "setting": "MST1/STK4", "value": 99.22, "unit": "%"}, {"measurement": "% enzyme activity", "setting": "MST3/STK24", "value": 107.63, "unit": "%"}, {"measurement": "% enzyme activity", "setting": "NEK4", "value": 99.62, "unit": "%"}, {"measurement": "% enzyme activity", "setting": "P38d/MAPK13", "value": 101.10, "unit": "%"}, {"measurement": "% enzyme activity", "setting": "PKCeta", "value": 96.60, "unit": "%"}, {"measurement": "% enzyme activity", "setting": "PKD2/PRKD2", "value": 102.86, "unit": "%"}, {"measurement": "% enzyme activity", "setting": "SGK2", "value": 94.93, "unit": "%"}, {"measurement": "% enzyme activity", "setting": "STK38L/NDR2", "value": 93.58, "unit": "%"}, {"measurement": "% enzyme activity", "setting": "TTBK1", "value": 93.79, "unit": "%"}, {"measurement": "% enzyme activity", "setting": "ULK2", "value": 80.11, "unit": "%"}, {"measurement": "% enzyme activity", "setting": "WNK1", "value": 100.13, "unit": "%"}, {"measurement": "remaining activity at 1 µM", "setting": "AKT3", "value": 98.5, "unit": "%"}, {"measurement": "remaining activity at 1 µM", "setting": "ASK1/MAP3K5", "value": 101, "unit": "%"}, {"measurement": "remaining activity at 1 µM", "setting": "CDK5/P25", "value": 93.6, "unit": "%"}, {"measurement": "remaining activity at 1 µM", "setting": "CLK4", "value": 94.9, "unit": "%"}, {"measurement": "remaining activity at 1 µM", "setting": "COT1/MAP3K8 [2]", "value": 93.4, "unit": "%"}, {"measurement": "remaining activity at 1 µM", "setting": "DYRK2", "value": 97.5, "unit": "%"}, {"measurement": "remaining activity at 1 µM", "setting": "FGFR2", "value": 97.8, "unit": "%"}, {"measurement": "remaining activity at 1 µM", "setting": "GSK3b", "value": 99.5, "unit": "%"}, {"measurement": "remaining activity at 1 µM", "setting": "IKKe/IKBKE", "value": 92.2, "unit": "%"}, {"measurement": "remaining activity at 1 µM", "setting": "MAST3", "value": 97.5, "unit": "%"}, {"measurement": "remaining activity at 1 µM", "setting": "MKK4", "value": 94.3, "unit": "%"}, {"measurement": "remaining activity at 1 µM", "setting": "MKK6", "value": 68.5, "unit": "%"}, {"measurement": "remaining activity at 1 µM", "setting": "NEK2", "value": 93, "unit": "%"}, {"measurement": "remaining activity at 1 µM", "setting": "NEK5", "value": 106, "unit": "%"}, {"measurement": "remaining activity at 1 µM", "setting": "P38b/MAPK11", "value": 102, "unit": "%"}, {"measurement": "remaining activity at 1 µM", "setting": "PAK4", "value": 104, "unit": "%"}, {"measurement": "remaining activity at 1 µM", "setting": "PKG1b", "value": 99.5, "unit": "%"}, {"measurement": "remaining activity at 1 µM", "setting": "PRKX", "value": 97, "unit": "%"}, {"measurement": "remaining activity at 1 µM", "setting": "SNRK", "value": 113, "unit": "%"}, {"measurement": "remaining activity at 1 µM", "setting": "SSTK/TSSK6", "value": 110, "unit": "%"}, {"measurement": "remaining activity at 1 µM", "setting": "TAOK2/TAO1", "value": 82.3, "unit": "%"}]}]}
